Results from paper PMC10626543.
These are yes or no findings as the source states them, for the method shown. In cells and extracts the contact can be indirect. These calls come from enrichment with a bait or labelling near it, and not all partners need be listed. Sequences can lack the tags named with a protein.

By UniProt entry, the sequences of proteins in these tests, tags left out. Residues count along the entry.
UniProt P48678, residues 1-647: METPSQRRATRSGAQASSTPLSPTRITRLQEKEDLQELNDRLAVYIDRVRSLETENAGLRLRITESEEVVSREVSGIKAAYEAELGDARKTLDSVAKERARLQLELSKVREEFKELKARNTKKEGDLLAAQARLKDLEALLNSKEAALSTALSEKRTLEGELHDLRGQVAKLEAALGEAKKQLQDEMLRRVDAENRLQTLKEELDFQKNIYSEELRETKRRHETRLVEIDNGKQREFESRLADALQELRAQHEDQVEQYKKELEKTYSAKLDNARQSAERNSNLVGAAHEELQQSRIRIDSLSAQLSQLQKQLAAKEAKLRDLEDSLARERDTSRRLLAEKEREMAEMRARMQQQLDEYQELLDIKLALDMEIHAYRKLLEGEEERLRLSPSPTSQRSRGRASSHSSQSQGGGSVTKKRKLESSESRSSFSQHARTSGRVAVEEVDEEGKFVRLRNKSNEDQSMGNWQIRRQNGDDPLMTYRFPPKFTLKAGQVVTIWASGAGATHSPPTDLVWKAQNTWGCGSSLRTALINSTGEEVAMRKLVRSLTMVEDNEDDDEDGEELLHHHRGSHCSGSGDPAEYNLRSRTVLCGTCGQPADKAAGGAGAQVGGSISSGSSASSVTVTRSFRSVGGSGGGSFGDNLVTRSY

B1: MLIP (protein, UniProt Q5FW52 1-967)
chain: MTSCILAGSLETTPKVSPGDPEAKPLIFTFVPTLRRLPTHIQLADTSKFLVKIPEEPTDKSPETVNRFEYSDHMTFSSESKQERVQRILDYPSEVSGRNSQQKEFNTKEPQGMQKGDLFKAEYVFIVDSDGEDEATCRQGEQGPPGGPGNIATRPKSLAISSSLASDVVRPKVRGADLKTSSHPEIPHGIAPQQKHGLLISPTTSEQLAHKPPAFSFVSPTNQKTPPVPANVSGATVLREFHTRRLDVTGASEEETTTYFHSTAHDSPLSAWKGASTLVVSPSAQLSGSSLCGSNVTDHTRGLASEAQKKMSTSNVLNPKEDVRTCPAPASGASLTSPSASYIPVRIVMHSLSPSPKPLTSSSHGSLSTVCSQMSSSGSLSKSGLKSPVPSRLSLLTAILKSNPSHQRPLSPASCPTFSLNSLASSTLALDQKVKQTPPTSKKSLSSGSLTTGSTEQEHQASAASYQPCHLPFFSKTTPLSQAQPLSPLALASNSCASMDIEKIPGSTLRSNTTSPQPQTDTFSLADVPSVTPVLSPLSSSKGRKDGDSRTPEKNRNICIQPSTLASTPPVDESLALSSSGKGFHPSPALSDLIDRSKRACSQQHPGQRPSPSALPTPPVSRAASASHPHLGCSILPLQSSLTQTLQPSPSALRPSCGSATCPSRTQMPENTASNHSSRVSTPSLPVSLTRTKELFSPCALSMSAGPENKKPKQYKTMSSYKAFAAIPTNTLLLEQKALDEPARTESNSKASVLDLPVEFCFPAQLRQQTEELCATIDKVLQDSLSMHSSDSPSRPPQTMLGSETIKTPTTHPRAAGRETKYANLSSSSSTASESQLTKPGVIRPVPVKSKLLLRKDEEVYEPNPFSKYLEDNSGLFSEQDMAIPHKPVSLHPLYQSKLYPPAKSLLHPQTLSHADCLTPGSFSHLSSFSVRDEQEKSPTLLSQDTYNKLGHPMVTIPEHDTLDSKE
B2: Plcb4 (protein, UniProt Q91UZ1 1-1175)
chain: MAKPYEFNWQKEVPSFLQEGAVFDRYEEESFVFEPNCLFKVDEFGFFLTWKSEGKEGQVLECSLINSIRQAAIPKDPKILAALEAVGKSENDLEGRILCVCSGTDLVNIGFTYMVAENPEVTKQWVEGLRSIIHNFRANNVSPMTCLKKHWMKLAFLTNTTGKIPVRSITRTFASGKTEKVIFQALKELGLPSGKNDEIEPAAFTYEKFYELTQKICPRTDIEDLFKKINGDKTDYLTVDQLVSFLNEHQRDPRLNEILFPFYDAKRAMQIIEMYEPDEELKKKGLISSDGFCRYLMSDENAPVFLDRLELYQEMDHPLAHYFISSSHNTYLTGRQFGGKSSVEMYRQVLLAGCRCVELDCWDGKGEDQEPIITHGKAMCTDILFKDVIQAIKETAFVTSEYPVILSFENHCSKYQQYKMSKYCEDLFGDLLLKQALESHPLEPGRPLPSPNDLKRKILIKNKRLKPEVEKKQLEALKSMMEAGESAAPASILEDDNEEEIESADQEEEAHPEYKFGNELSADDYSHKEAVANSVKKGLVTVEDEQAWMASYKYVGATTNIHPYLSTMINYAQPVKFQGFHVAEERNIHYNMSSFNESVGLGYLKTHAIEFVNYNKRQMSRIYPKGGRVDSSNYMPQIFWNAGCQMVSLNYQTPDLAMQLNQGKFEYNGSCGYLLKPDFMRRPDRTFDPFSETPVDGVIAATCSVQVISGQFLSDKKIGTYVEVDMYGLPTDTIRKEFRTRMVMNNGLNPVYNEESFVFRKVILPDLAVLRIAVYDDNNKLIGQRILPLDGLQAGYRHISLRNEGNKPLSLPTIFCNIVLKTYVPDGFGDIVDALSDPKKFLSITEKRADQMRAMGIETSDIADVPSDTSKNDKKGKANPAKANVTPQSSSELRPTTTAALGSGQEAKKGIELIPQVRIEDLKQMKAYLKHLKKQQKELNSLKKKHAKEHSTMQKLHCTQVDKIVAQYDKEKSTHEKILEKAMKKKGGSNCLEIKKETEIKIQTLTTDHKSKVKEIVAQHTKEWSEMINTHSAEEQEIRDLHLSQQCELLRKLLINAHEQQTQQLKLSHDRESKEMRAHQAKISMENSKAISQDKSIKNKAERERRVRELNSSNTKKFLEERKRLAMKQSKEMDQLKKVQLEHLEFLEKQNEQAKEMQQMVKLEAEMDRRPATVV
B3: Kank2 (protein, UniProt Q8BX02 1-843)
chain: MAQVLHVPAPFPGTPGQASPAAFPSKEPDPPYSVETPYGYRLDLDFLKYVDDIEKGHTLRRVAVQRRPRLGSLPRGPGSWWTSTESLCSDASGDSRHSAYSYCGRGFYPQYGALETRIGSNPRVERTLLDARRRLEDQAAAPSSGGLGSLTPSAAGSTSSLAGVGLLPPTPRSSGLSTPVAPSAGHLAHVREQMAGALRKLRQLEEQVKLIPVLQVKLSVLQEEKRQLTVQLKSQKFLGHPSGTRSRSELCLDLPEAPDDPAALETRSVGTWVRERDLGIPDGEAALVAKVAVLETQLKKALQELRAAQTQQVDLQPQAWPPPDTQVRVDTVRVVEGPREVEVAASTAAGALAQRAQSLEPYGTGLKALTTSGGPENTLVFRSHEVVETMCPLPTATTGNVHTAKKISITERSCTGAPRMTEPSSVNPRPAAASVVQPENPVPAAQDTTDKKPTRPAAASQDSQAADGAGRASLATKRKEDPADPEVNQRNLQFVGVNGGYESPSEDSSTAENSEHESTENEGPEPPARVLSPAECPQLRPPGAAVATTSLEGPQLSQESQRVPAPEVASGPDPEEEIRMDLSPDLISACLALEKYLENPNALTERELKVAYTTVLQEWLRLACRSDAHPELVRRHLVTFRAMSARLLDYVVNIADSNGNTALHYSVSHANFPVVRQLLDSGVCHVDKLNRAGYSPIMLTALATLKTQDDIETILQLFRLGNVNAKASQAGQTALMLAVSHGRVDVVRALLACEADVNIQDEDGSTALMCACEHGHKEITGLLLAVPSCDISLTDRDGSTALMVALDAGQSEIASMLYSRMNIKCSFAPMSDYESPASSSAEE
B4: Sun2 (protein, UniProt Q8BJS4 1-731)
chain: MSRRSQRLTRYSQDDNDGGSSSSGASSVAGSQGTVFKDSPLRTLKRKSSNMKHLSPAPQLGPSSDSHTSYYSESVVRESYIGSPRAVSLARSALLDDHLHSEPYWSGDLRGRRRRGTGGSESSKANGLTAESKASEDFFGSSSGYSSEDDLAGYTDSDQHSSGSRLRSAASRAGSFVWTLVTFPGRLFGLLYWWIGTTWYRLTTAASLLDVFVLTRSRHFSLNLKSFLWFLLLLLLLTGLTYGAWHFYPLGLQTLQPAVVSWWAAKESRKQPEVWESRDASQHFQAEQRVLSRVHSLERRLEALAADFSSNWQKEAIRLERLELRQGAAGHGGGSSLSHEDALSLLEGLVSRREATLKEDLRRDTVAHIQEELATLRAEHHQDSEDLFKKIVQASQESEARVQQLKTEWKSMTQEAFQESSVKELGRLEAQLASLRQELAALTLKQNSVADEVGLLPQKIQAARADVESQFPDWIRQFLLGDRGARSGLLQRDEMHAQLQELENKILTKMAEMQGKSAREAAASLGQILQKEGIVGVTEEQVHRIVKQALQRYSEDRIGMVDYALESGGASVISTRCSETYETKTALLSLFGIPLWYHSQSPRVILQPDVHPGNCWAFQGPQGFAVVRLSARIRPTAVTLEHVPKALSPNSTISSAPKDFAIFGFDEDLQQEGTLLGTFAYDQDGEPIQTFYFQASKMATYQVVELRILTNWGHPEYTCIYRFRVHGEPAH
B5: Protein NDRG2 (N-myc downstream-regulated gene 2) (protein, UniProt Q9QYG0 1-371)
chain: MAELQEVQITEEKPLLPGQTPETAKEAELAARILLDQGQTHSVETPYGSVTFTVYGTPKPKRPAIFTYHDVGLNYKSCFQPLFRFGDMQEIIQNFVRVHVDAPGMEEGAPVFPLGYQYPSLDQLADMIPCILQYLNFSTIIGVGVGAGAYILSRYALNHPDTVEGLVLINIDPNAKGWMDWAAHKLTGLTSSIPDMILGHLFSQEELSGNSELIQKYRGIIQHAPNLENIELYWNSYNNRRDLNFERGGETTLKCPVMLVVGDQAPHEDAVVECNSKLDPTQTSFLKMADSGGQPQLTQPGKLTEAFKYFLQGMGYMASSCMTRLSRSRTASLTSAASIDGSRSRSRTLSQSSESGTLPSGPPGHTMEVSC

The binders below were run against native lamin A/C (mouse (endogenous in heart, skeletal muscle and brain)) (UniProt P48678) (assay: affinity purification with mass spectrometry; native lamin A/C immunoprecipitated with mAb 4C11 and Protein G Sepharose from sonicated heart lysates of old IL10-KO and control C57Bl/6 female mice (five each); 50 mM Tris pH 7.4, 300 mM NaCl, 0.3% Triton X-100, 4°C; TMT 10-plex).

For B1, which binding is on record?
Its binding is “binds”.

B2 was tested. Which binding did it give?
Its binding is “binds”.

How did the binding turn out when B3 was run?
Its binding is “binds”.

For B4, which binding is on record?
Its binding is “binds”.

B5 was tested. Which binding did it give?
Its binding is “binds”.
